Source: the supplement of paper PMC7666118
Some of the results follow.

Amino acid sequences for entries named in this document (tags omitted). A change or cut given only in a name is not applied to a line headed by its entry.
UniProt Q5T2R2: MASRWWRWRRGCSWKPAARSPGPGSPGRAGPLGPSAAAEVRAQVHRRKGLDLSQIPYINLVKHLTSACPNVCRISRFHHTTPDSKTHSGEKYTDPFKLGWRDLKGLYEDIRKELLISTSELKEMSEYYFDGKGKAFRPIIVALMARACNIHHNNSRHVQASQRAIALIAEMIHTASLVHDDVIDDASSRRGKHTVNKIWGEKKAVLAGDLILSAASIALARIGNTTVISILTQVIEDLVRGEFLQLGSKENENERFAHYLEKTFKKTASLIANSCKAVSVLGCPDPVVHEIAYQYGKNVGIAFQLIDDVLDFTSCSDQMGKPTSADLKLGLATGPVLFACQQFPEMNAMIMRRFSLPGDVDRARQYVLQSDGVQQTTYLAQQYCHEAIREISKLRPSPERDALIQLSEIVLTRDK
UniProt Q9H0J9: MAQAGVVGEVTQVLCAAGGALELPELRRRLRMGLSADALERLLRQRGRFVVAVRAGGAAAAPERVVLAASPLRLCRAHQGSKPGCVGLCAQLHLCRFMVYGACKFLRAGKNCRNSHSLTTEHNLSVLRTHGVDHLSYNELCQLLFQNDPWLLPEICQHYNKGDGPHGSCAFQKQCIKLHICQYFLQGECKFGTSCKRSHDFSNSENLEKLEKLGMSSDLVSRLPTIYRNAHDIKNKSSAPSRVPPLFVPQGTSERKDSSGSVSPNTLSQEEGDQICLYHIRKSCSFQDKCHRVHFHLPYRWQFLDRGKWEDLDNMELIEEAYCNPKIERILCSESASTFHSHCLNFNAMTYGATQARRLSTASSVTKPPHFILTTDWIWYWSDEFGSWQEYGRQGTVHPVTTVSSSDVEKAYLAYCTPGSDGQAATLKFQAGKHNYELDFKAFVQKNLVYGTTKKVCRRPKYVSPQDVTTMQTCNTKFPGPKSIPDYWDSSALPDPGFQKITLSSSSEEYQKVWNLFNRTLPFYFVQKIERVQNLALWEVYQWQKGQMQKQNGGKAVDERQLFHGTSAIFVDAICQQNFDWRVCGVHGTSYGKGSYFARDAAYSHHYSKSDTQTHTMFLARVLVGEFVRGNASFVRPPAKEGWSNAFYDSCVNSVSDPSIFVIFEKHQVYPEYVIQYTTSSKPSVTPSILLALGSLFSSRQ
UniProt Q9H6K4: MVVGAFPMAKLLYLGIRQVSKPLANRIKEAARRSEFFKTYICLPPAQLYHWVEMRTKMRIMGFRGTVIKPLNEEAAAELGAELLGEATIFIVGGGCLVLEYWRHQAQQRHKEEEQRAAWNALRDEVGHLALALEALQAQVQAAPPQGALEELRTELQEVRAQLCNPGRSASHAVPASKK
UniProt O14737: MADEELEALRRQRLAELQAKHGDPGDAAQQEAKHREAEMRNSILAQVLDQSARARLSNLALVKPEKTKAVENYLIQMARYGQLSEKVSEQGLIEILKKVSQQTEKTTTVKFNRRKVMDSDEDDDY
UniProt Q8N6M0: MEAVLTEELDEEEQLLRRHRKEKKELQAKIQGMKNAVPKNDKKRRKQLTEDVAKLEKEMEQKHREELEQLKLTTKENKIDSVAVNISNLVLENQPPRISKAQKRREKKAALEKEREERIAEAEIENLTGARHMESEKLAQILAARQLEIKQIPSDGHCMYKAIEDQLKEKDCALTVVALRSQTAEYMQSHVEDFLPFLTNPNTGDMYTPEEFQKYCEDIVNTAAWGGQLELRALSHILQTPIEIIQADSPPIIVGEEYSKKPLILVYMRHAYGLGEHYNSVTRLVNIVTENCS
UniProt Q00537: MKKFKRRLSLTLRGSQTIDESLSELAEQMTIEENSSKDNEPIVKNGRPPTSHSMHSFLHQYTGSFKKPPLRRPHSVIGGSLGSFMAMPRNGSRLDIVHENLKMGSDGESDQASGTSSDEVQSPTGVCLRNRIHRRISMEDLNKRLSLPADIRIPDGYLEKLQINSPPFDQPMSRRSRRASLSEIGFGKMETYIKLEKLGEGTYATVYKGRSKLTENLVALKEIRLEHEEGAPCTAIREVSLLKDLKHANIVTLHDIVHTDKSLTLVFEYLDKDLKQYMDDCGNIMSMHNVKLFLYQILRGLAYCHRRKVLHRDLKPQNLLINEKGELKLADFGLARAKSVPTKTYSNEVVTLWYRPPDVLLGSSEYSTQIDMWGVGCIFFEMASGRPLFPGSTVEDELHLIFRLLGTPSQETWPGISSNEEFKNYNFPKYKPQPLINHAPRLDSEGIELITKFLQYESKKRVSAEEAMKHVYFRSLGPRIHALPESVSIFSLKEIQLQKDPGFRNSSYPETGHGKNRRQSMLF
UniProt Q8WVJ2: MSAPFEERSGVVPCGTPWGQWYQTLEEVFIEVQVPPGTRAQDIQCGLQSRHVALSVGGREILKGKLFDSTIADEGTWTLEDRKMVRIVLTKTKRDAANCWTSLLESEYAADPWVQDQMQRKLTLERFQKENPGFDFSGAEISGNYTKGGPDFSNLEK
UniProt P13674: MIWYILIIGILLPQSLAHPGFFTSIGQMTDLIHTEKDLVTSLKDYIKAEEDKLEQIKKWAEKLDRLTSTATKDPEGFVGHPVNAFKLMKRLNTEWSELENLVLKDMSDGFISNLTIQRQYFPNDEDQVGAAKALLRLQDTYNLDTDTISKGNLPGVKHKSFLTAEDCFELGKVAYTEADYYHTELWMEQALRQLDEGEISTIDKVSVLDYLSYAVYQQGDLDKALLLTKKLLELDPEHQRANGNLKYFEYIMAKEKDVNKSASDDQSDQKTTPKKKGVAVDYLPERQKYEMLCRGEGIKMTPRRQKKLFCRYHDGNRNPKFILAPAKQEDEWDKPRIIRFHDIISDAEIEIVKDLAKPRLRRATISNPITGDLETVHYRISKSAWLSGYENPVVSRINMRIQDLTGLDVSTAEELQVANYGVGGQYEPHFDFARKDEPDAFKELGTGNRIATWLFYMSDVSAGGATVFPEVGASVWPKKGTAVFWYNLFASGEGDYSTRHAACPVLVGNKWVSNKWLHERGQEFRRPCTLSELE
UniProt Q15121, whole entry: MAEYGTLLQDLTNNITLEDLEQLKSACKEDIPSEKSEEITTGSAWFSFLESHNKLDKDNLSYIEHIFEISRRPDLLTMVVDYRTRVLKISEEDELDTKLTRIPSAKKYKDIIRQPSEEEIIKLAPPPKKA
UniProt Q96RG2: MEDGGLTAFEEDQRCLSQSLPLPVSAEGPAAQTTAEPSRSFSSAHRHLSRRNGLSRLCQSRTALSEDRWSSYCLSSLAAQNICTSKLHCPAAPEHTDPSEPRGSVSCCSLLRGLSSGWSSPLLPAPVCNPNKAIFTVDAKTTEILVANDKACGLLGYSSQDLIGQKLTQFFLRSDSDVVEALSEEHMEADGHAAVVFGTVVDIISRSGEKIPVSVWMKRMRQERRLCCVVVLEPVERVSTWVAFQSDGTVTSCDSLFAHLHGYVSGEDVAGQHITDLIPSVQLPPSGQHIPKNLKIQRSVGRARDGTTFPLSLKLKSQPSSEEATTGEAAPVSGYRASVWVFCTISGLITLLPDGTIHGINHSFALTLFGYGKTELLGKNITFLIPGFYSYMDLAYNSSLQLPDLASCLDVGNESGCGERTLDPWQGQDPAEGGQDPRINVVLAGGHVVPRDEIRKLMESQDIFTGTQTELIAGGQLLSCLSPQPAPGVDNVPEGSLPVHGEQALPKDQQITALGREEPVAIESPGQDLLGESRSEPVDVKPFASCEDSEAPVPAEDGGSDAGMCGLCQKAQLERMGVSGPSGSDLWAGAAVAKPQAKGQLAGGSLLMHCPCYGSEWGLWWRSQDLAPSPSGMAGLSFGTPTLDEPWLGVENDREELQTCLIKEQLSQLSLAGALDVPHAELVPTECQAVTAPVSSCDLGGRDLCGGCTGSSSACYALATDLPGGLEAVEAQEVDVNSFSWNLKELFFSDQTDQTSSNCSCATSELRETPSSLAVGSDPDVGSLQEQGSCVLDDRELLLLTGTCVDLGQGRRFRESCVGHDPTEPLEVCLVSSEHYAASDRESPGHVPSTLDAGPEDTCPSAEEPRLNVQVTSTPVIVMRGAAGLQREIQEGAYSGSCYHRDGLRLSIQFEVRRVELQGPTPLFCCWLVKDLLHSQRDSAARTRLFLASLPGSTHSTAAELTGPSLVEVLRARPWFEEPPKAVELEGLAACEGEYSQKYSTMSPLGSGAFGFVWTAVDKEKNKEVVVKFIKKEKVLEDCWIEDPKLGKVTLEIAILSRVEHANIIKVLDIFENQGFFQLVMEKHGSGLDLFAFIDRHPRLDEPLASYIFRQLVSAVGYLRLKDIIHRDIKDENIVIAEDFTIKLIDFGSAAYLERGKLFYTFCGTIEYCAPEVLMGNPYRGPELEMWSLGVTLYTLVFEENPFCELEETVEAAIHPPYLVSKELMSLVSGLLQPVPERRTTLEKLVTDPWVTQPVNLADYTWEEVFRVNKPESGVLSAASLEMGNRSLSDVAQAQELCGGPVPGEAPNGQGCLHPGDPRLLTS
UniProt Q99572: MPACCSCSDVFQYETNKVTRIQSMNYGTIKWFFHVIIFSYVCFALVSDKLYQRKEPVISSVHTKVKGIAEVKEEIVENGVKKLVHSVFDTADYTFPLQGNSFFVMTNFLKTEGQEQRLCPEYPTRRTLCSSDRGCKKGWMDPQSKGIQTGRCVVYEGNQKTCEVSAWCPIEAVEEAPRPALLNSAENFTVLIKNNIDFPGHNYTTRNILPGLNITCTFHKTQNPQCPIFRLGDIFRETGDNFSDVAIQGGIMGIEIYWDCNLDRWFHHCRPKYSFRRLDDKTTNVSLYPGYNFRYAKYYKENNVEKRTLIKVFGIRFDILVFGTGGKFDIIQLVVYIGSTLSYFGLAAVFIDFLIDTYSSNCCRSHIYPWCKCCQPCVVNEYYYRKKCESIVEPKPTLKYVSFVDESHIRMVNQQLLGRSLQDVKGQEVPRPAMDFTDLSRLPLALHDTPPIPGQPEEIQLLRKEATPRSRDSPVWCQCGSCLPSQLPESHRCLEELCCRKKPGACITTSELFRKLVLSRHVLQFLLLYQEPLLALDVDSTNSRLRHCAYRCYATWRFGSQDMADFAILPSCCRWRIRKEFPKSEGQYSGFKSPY

The targets below were run with COc1ccc(Cn2ccc3ccc(C(=O)NO)cc32)cc1 (assay: dose-dependent thermal stabilisation call (2D-TPP, DLPTP, 10% FDR) (binary (1 = stabilised)); higher = stabilised by the compound). Conditions: system: HL-60 intact cells; concentration range 0.04-10 µM.

| Target | dose-dependent thermal stabilisation call |
| --- | --- |
| PDSS1 (UniProt Q5T2R2) | inactive: 0 |
| PARP12 (UniProt Q9H0J9) | inactive: 0 |
| OPA3 (UniProt Q9H6K4) | inactive: 0 |
| PDCD5 (UniProt O14737) | active: 1 |
| OTUD6B (UniProt Q8N6M0) | inactive: 0 |
| PCTK2 (UniProt Q00537) | inactive: 0 |
| NUDCD2 (UniProt Q8WVJ2) | inactive: 0 |
| P4HA1 (UniProt P13674) | inactive: 0 |
| PEA15 (UniProt Q15121) | inactive: 0 |
| PASK (UniProt Q96RG2) | inactive: 0 |
| P2RX7 (UniProt Q99572) | inactive: 0 |

An excerpt of these results, with tabs:
Target	dose-dependent thermal stabilisation call
NUDCD2 (UniProt Q8WVJ2)	inactive: 0
P2RX7 (UniProt Q99572)	inactive: 0
